Test results taken from PubChem BioAssay AID504648 (National Center for Advancing Translational Sciences (NCATS), 2011).
The campaign covered roughly 390,000 compounds. About 610 (0.16%) were called active. Inconclusive results, whose numbers are uncertain, are shown with a selection of clear calls. Calls follow the shape of the dose curve; as a rule, active = well fitted inhibition curve with a large enough effect; inconclusive = small, poorly fitted or top-dose-only effect, or effect the other way, or another doubt; inactive = no such curve, though single readings can be large or run the other way. Where the call is inconclusive, the potency comes from a doubtful curve fit.

Experiment: Nrf2 qHTS screen for inhibitors: counterscreen for cytotoxicity
Conditions: A549 ARE-Fluc cells, CellTiter-Fluor viability, 18-24 h; series mostly up to 46 µM
Outline: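 A549 ARE_Fluc cells in 5% FBS OPTI-MEM were exposed to compounds in concentration-response for 18-24 h at 37 deg C. Viability was read by CellTiter-Fluor fluorescence (Ex 405/Em 525) after 30 min, before the luciferase read.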
Potency is read from the fitted curve at half-maximal effect.

| SMILES | Potency |
| --- | --- |
| Cc1cccn2c(N)c(-c3ccccc3)nc12 | inactive |
| O=C1COc2ccc(-c3csc(=Nc4ccc(OC(F)F)cc4)n3CC3CCCO3)cc2N1 (centres undefined) | inconclusive: 25.9 µM [falling, single point] |
| Cn1c2c(c(=O)n3ncnc13)CCCC2 | inactive |
| CCOc1ccc(N/N=C(/C#N)C(N)=O)cc1 | inconclusive: 10.3 µM [falling, partial curve] |
| O=C(CN1CCN(Cc2ccc(Cl)cc2)CC1)N/N=C/C=C/c1ccccc1[N+](=O)[O-] | inactive |
| Cc1nc2sc(C)c(C)c2c(=O)[nH]1 | inactive |
| CCOc1ccc(CNC(=O)c2ccc3[nH]c(C)c(C)c3c2)cc1OC | inactive |
| CC1CCc2[nH]c3ccc(C(=O)N(C)CC(=O)Nc4ccccc4Br)cc3c2C1 (centres undefined) | inconclusive: 29.1 µM [falling, single point] |
| Cc1ccc(NC(=O)c2nc[nH]c2C(=O)NCCCCCNC(=O)OC(C)(C)C)cc1 | inconclusive: 23.1 µM [falling, partial curve, poor fit] |
| OC1(c2ccc(Cl)cc2)CCN(Cc2cn[nH]c2-c2ccccc2)CC1 | inactive |
| COC(=O)c1c(NC(=O)c2nc3nc(C)cc(C(F)F)n3n2)sc2c1CCC2 | inactive |
| O=C(Nc1ncc([N+](=O)[O-])s1)c1ccccc1Br | inconclusive: 20.6 µM [falling, partial curve, poor fit] |
| CCOC(=O)C1=C(C)NC(SC)=C(C#N)C1CC(C)C (centres undefined) | inconclusive: 2.59 µM [falling, partial curve, poor fit] |
| CCN1CCCC1CNC(=O)c1cc2c(-c3cccc(OC)c3)nn(C)c2s1 (centres undefined) | inconclusive: 29.1 µM [falling, single point] |
| CCN(CC)CCCC(C)Nc1nccc2c(Cl)cccc12 (centres undefined) | inconclusive: 32.6 µM [falling, partial curve, poor fit] |
| O=S(=O)(c1ccc2c(c1)OCCO2)N1CCC(c2nc3ccc(Cl)cc3[nH]2)CC1 | inconclusive: 20.6 µM [falling, single point] |
| O=C(c1cccs1)N(CCN1CCCCC1)CC1CCCN(C2CCCC2)C1 (centres undefined) | inconclusive: 23.1 µM [falling, partial curve, poor fit] |
| COc1ccc(/C=N\Nc2ccc([N+](=O)[O-])cc2[N+](=O)[O-])c(C(=O)O)c1OC | inconclusive: 20.6 µM [falling, single point] |
| COc1ccc(S(=O)(=O)Nc2ccc(F)c(F)c2)cc1Cl | inactive |
| Cc1ccc(C)c(S(=O)(=O)N2CCC(c3nc4c(nnn4Cc4ccc(F)cc4)c(=O)[nH]3)CC2)c1 | inactive |
| CCOc1ccc(-n2c(-c3ccc(OC)cc3)c[n+]3c2CCCCC3)cc1 | inconclusive: 13 µM [falling, partial curve] |
| CCc1cc(=O)oc2c(C)c(O)c(CN(C)C)cc12 | inconclusive: 23.1 µM [activator, partial curve, poor fit] |

As entered above:
Value of `COc1ccc(/C=N\Nc2ccc([N+](=O)[O-])cc2[N+](=O)[O-])c(C(=O)O)c1OC` under Potency: inconclusive: 20.6 µM [falling, single point]
Value of `Cn1c2c(c(=O)n3ncnc13)CCCC2` under Potency: inactive

Next records follow:

| SMILES | Potency |
| --- | --- |
| COc1ccc(S(=O)(=O)c2c(SC)nn(Cc3ccccc3C)c2NC(C)=O)cc1 | inactive |
| COc1ccc(C(=O)Nc2cccc(C(=O)N3CCCC3)c2)cc1 | inactive |
| CCOC(=O)N1CCN(C(=O)c2ccc(Cn3c(=S)[nH]c4cc5c(cc4c3=O)OCO5)cc2)CC1 | inconclusive: 20.6 µM [falling, partial curve, poor fit] |
| COc1cc2c(cc1OC)n(CC(=O)c1ccc(F)cc1)c(=O)n1nc(CCn3nc(C)cc3C)nc21 | inconclusive: 6.51 µM [falling, partial curve] |
| CCCN1CCCc2cc(CN(CCCN3CCOCC3)C(=O)Nc3ccc(CC)cc3)ccc21 | inconclusive: 20.6 µM [falling, single point] |
| CCSc1nnc(-c2ccc(C)cc2)c2ccccc12 | inconclusive: 29.1 µM [falling, single point] |
| COc1cc(-c2noc(C)c2/C=C/c2cccc([N+](=O)[O-])c2)cc(OC)c1OC | inconclusive: 29.1 µM [falling, partial curve, poor fit] |
| COc1cccc(/C=N/Nc2nc(Nc3ccccc3)nc(-n3nc(C)cc3C)n2)c1O | inconclusive: 29.1 µM [falling, partial curve, poor fit] |
| N=C1/C(=C\c2ccc(-c3cccc(C(=O)O)c3)o2)C(=O)N=C2SC=C(c3ccccc3)N12 | inactive |
| C/C(=N\NC(=O)c1ccc(-n2cnnn2)cc1)c1ccc(Cl)cc1 | inconclusive: 4.11 µM [activator, full curve, poor fit] |
| C=CCC[C@H](Cc1ccc(F)cc1)C(=O)O[C@H](CNC(=O)[C@@H](CC=C)CC(=O)N(CCO)Cc1ccccc1)c1ccccc1 | inconclusive: 18.4 µM [falling, single point] |
| CCc1cccc2c(C(=O)CN3C(=O)NC4(CCCCCC4)C3=O)c[nH]c12 | inconclusive: 16.4 µM [falling, partial curve, poor fit] |
| Cc1ccc(S(=O)(=O)c2c(N)n(/N=C/c3ccco3)c3nc4ccccc4nc23)cc1C | inactive |
| CCN1CCN(c2cc(C)c3cc(NC(=S)N4CC(C)CC(C)C4)ccc3n2)CC1 (centres undefined) | inconclusive: 23.1 µM [falling, partial curve] |
| COc1ccc(C(=O)Oc2cc(N)n(S(=O)(=O)c3ccccc3)n2)cc1 | inactive |
| Cc1cc(S(=O)(=O)N2CCOCC2)ccc1OCC(=O)Nc1ccc(F)cc1 | inactive |
| CN1CCN(CC(=O)Nc2cc(N(C)C)nc3ccccc23)CC1 | inconclusive: 20.6 µM [falling, partial curve] |
| O=C(CSc1ncnc2ccccc12)NCc1ccco1 | inactive |
| COc1cccc(Nc2nc3ccccc3nc2NS(=O)(=O)c2ccc(NC(C)=O)cc2)c1 | inactive |
| Cn1c(=N)n(CC(O)c2cccs2)c2ccccc21 (centres undefined) | inconclusive: 16.4 µM [falling, single point] |
| COc1ccc(C(=O)N2CCc3cc(OC)c(OC)cc3C2COc2ccccc2OC)cc1 (centres undefined) | inactive |
| CCCCN(CC)C(=O)Nc1ccc2c(c1)N(C)C(=O)c1ccccc1S2 | inconclusive: 32.6 µM [falling, partial curve, poor fit] |
